According to patent US20260130879A1 (IMMUNIC AG, priority 2023, published 2026):
At least one compound was matched to its structure with a doubt left.

Chains of the proteins cited; added tags and fusions are not shown. Residues count along the entry.
UniProt P43354, 360-595 limits assumed: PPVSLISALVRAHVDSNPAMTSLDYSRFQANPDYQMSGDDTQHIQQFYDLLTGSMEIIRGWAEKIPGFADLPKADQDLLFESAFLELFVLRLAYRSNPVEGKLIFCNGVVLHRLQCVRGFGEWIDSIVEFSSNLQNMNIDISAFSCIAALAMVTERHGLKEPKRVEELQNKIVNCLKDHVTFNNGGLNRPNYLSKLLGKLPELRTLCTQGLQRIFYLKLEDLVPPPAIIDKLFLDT

Tests used:
[1] = target: human Nurr1 (Homo sapiens, UniProt P43354); test: Hybrid Gal4-Nurr1 reporter gene assay in HEK293T cells
[2] = test system: Nurr1 target genes; test: Microarray gene expression in stimulated human PBMCs; assay type: cell-based
Experimental: Human PBMC isolation was performed similarly as described above. […] Four biological replicates were used per condition. Cells were detached from the cell culture plates by using MACS buffer, were washed with PBS and then resuspended in RLT buffer for subsequent RNA isolation with RNAeasy Mini Kit (Quiagen). 100 ng total RNA per sample were introduced into an RT-IVT reaction. Prior to RT-IVT, the total RNA samples were spiked with in-vitro synthesized polyadenylated transcripts (One-Color RNA Spike-In Mix, Agilent Technologies), which serves as an internal labeling control for linearity, sensitivity and accuracy. The spiked total RNA was reverse transcribed into cDNA and then converted into labeled cRNA by in vitro transcription (Low Input Quick-Amp Labeling Kit One-Color, Agilent Technologies) incorporating Cyanine-3-CTP. All steps were carried out according to the manufacturer's instructions. […] Afterwards, microarrays were washed with increasing stringency using Gene Expression Wash Buffers (Agilent Technologies) followed by drying with acetonitrile (SIGMA). […] Differential gene expression was identified by applying appropriate biostatistics to the data set. GeneSpring GX11 analysis software was used to normalize and analyze the raw data. […]

| SMILES | Nurr1 agonism max. fold activation (range) [1] | Upregulation of Nurr1 target genes (NCAM, CFB, LTA, A2M, HSD11B1, BHLHE41, MARCO) [2] |
| --- | --- | --- |
| [2H]c1c([2H])c([2H])c(-c2c(F)c(F)c(NC(=O)c3ccsc3C(N)=O)c(F)c2F)c([2H])c1[2H] [6/45] | + (+: ≥1.3-fold to <2-fold) |  |
| [2H]c1c([2H])c([2H])c(-c2c(F)c(F)c(NC(=O)C3=C(C(N)=O)CC(F)(F)C3)c(F)c2F)c([2H])c1[2H] [6/46] | + (+: ≥1.3-fold to <2-fold) |  |
| C/C(O)=C(\C#N)C(=O)Nc1ccc(C(F)(F)F)cc1 [teriflunomide, reference compound] |  | upregulated by IMU-838 but not by teriflunomide |
